# The supplement of paper PMC8728848
# The list shows a part of the results.
# B1: his-Lectin-24A (Drosophila melanogaster) (protein)
# chain: MFRLSVLVLNLLLVSHEFSAGTAKIEIQPLPALCNGYCFPTLKPVMEYVAIHQDKWNTCTEILANEARKDQIQLNIQLDALKADVSNIKASQLSKDEKLDRMEREQFAMHESLETINRYLTVKLDRTKLQLEAIKNTMDYMKAQMDGYFSAINGVQCLQPGFEKIGDRYFYIEEDVELNWLDAQAKCRRMGGHLASIKTKQEFDAIVEKLDDSKSYFLGVNENTKTGDFVSAASGKSCLYHEWGPGEPHHNNDQERCVSILRKLMHVGNCTYEKRFICQYGI
# Key:
# Test in all cases: glycan array binding signal (z-score within array); higher = stronger binding
# Details in all cases: glycan notation: IUPAC condensed, linker removed
# Gal(a1-3)Gal(b1-3)GlcNAc = molecular target: Gal(a1-3)Gal(b1-3)GlcNAc
# How it was run: (§1)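 The Consortium for Functional Glycomics database supplied 3228 glycan arrays, of which those lacking an available protein sequence were dropped. The binding signal, a within-array Z-score, was averaged across arrays of the same protein sequence and across linkers. Negative scores can be read as non-binding.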
# [1] = molecular target: Gal(a1-3)Gal(b1-3)GlcNAc(b1-2)Man
# How it was run: as §1
# [2] = molecular target: Gal(a1-3)Gal(b1-3)GlcNAc(b1-2)Man(a1-3)[Gal(a1-3)Gal(b1-3)GlcNAc(b1-2)Man(a1-6)]Man(b1-4)GlcNAc(b1-4)GlcNAc
# How it was run: as §1
# [3] = molecular target: Gal(a1-3)Gal(b1-3)GlcNAc(b1-3)GalNAc
# How it was run: as §1
# [4] = molecular target: Gal(a1-3)Gal(b1-3)GlcNAc(b1-6)GalNAc
# How it was run: as §1
# [5] = molecular target: Gal(a1-3)Gal(b1-3)[Fuc(a1-4)]GlcNAc(b1-2)Man(a1-3)[Gal(a1-3)Gal(b1-3)[Fuc(a1-4)]GlcNAc(b1-2)Man(a1-6)]Man(b1-4)GlcNAc(b1-4)GlcNAc
# How it was run: as §1
# Gal(a1-3)Gal(b1-4)Glc = molecular target: Gal(a1-3)Gal(b1-4)Glc
# How it was run: as §1
# Gal(a1-3)Gal(b1-4)GlcNAc = molecular target: Gal(a1-3)Gal(b1-4)GlcNAc
# How it was run: as §1
# [6] = molecular target: Gal(a1-3)Gal(b1-4)GlcNAc(b1-2)Man
# How it was run: as §1
# [7] = molecular target: Gal(a1-3)Gal(b1-4)GlcNAc(b1-2)Man(a1-3)[Gal(a1-3)Gal(b1-4)GlcNAc(b1-2)Man(a1-6)]Man(b1-4)GlcNAc(b1-4)GlcNAc
# How it was run: as §1
# [8] = molecular target: Gal(a1-3)Gal(b1-4)GlcNAc(b1-3)GalNAc
# How it was run: as §1
# [9] = molecular target: Gal(a1-3)Gal(b1-4)GlcNAc(b1-6)GalNAc
# How it was run: as §1
# [10] = molecular target: Gal(a1-3)Gal(b1-4)[Fuc(a1-3)]GlcNAc
# How it was run: as §1
# [11] = molecular target: Gal(a1-3)Gal(b1-4)[Fuc(a1-3)]GlcNAc(b1-2)Man(a1-3)[Gal(a1-3)Gal(b1-4)[Fuc(a1-3)]GlcNAc(b1-2)Man(a1-6)]Man(b1-4)GlcNAc(b1-4)GlcNAc
# How it was run: as §1
# Gal(a1-3)GalNAc = molecular target: Gal(a1-3)GalNAc
# How it was run: as §1
# [12] = molecular target: Gal(a1-3)[Gal(a1-4)]Gal(b1-4)GlcNAc
# How it was run: as §1
# [13] = molecular target: Gal(a1-4)Gal(b1-3)GlcNAc(b1-2)Man(a1-3)[Gal(a1-4)Gal(b1-3)GlcNAc(b1-2)Man(a1-6)]Man(b1-4)GlcNAc(b1-4)GlcNAc
# How it was run: as §1
# Gal(a1-4)Gal(b1-4)Glc = molecular target: Gal(a1-4)Gal(b1-4)Glc
# How it was run: as §1
# Gal(a1-4)Gal(b1-4)GlcNAc = molecular target: Gal(a1-4)Gal(b1-4)GlcNAc
# How it was run: as §1
# [14] = molecular target: Gal(a1-4)Gal(b1-4)GlcNAc(b1-2)Man(a1-3)[Gal(a1-4)Gal(b1-4)GlcNAc(b1-2)Man(a1-6)]Man(b1-4)GlcNAc(b1-4)GlcNAc
# How it was run: as §1
# [15] = molecular target: Gal(a1-4)Gal(b1-4)GlcNAc(b1-3)Gal(b1-4)Glc
# How it was run: as §1
# Gal(a1-4)GlcNAc = molecular target: Gal(a1-4)GlcNAc
# How it was run: as §1
# Gal(a1-6)Glc = molecular target: Gal(a1-6)Glc
# How it was run: as §1
# Gal(b1-2)Gal = molecular target: Gal(b1-2)Gal
# How it was run: as §1
# Gal(b1-3)Gal = molecular target: Gal(b1-3)Gal
# How it was run: as §1
# Gal(b1-3)Gal(b1-4)GlcNAc = molecular target: Gal(b1-3)Gal(b1-4)GlcNAc
# How it was run: as §1
# Gal(b1-3)GalNAc = molecular target: Gal(b1-3)GalNAc
# How it was run: as §1
# [16] = molecular target: Gal(b1-3)GalNAc(a1-3)[Fuc(a1-2)]Gal(b1-4)Glc
# How it was run: as §1
# [17] = molecular target: Gal(b1-3)GalNAc(a1-3)[Fuc(a1-2)]Gal(b1-4)GlcNAc
# How it was run: as §1
# Gal(b1-3)GalNAc(b1-3)Gal = molecular target: Gal(b1-3)GalNAc(b1-3)Gal
# How it was run: as §1
# [18] = molecular target: Gal(b1-3)GalNAc(b1-3)Gal(a1-4)Gal(b1-4)Glc
# How it was run: as §1
# [19] = molecular target: Gal(b1-3)GalNAc(b1-4)Gal(b1-4)Glc
# How it was run: as §1
# [20] = molecular target: Gal(b1-3)GalNAc(b1-4)[Neu5Ac(a2-3)]Gal(b1-4)Glc
# How it was run: as §1
# Gal(b1-3)GlcNAc = molecular target: Gal(b1-3)GlcNAc
# How it was run: as §1
# [21] = molecular target: Gal(b1-3)GlcNAc(a1-3)Gal(b1-4)GlcNAc
# How it was run: as §1
# [22] = molecular target: Gal(b1-3)GlcNAc(a1-6)Gal(b1-4)GlcNAc
# How it was run: as §1
# Gal(b1-3)GlcNAc(b1-2)Man = molecular target: Gal(b1-3)GlcNAc(b1-2)Man
# How it was run: as §1
# [23] = molecular target: Gal(b1-3)GlcNAc(b1-2)Man(a1-3)[Gal(b1-3)GlcNAc(b1-2)Man(a1-6)]Man(b1-4)GlcNAc(b1-4)GlcNAc
# How it was run: as §1
binder,measurement,setting,value
B1,glycan array binding signal (z-score),Gal(a1-3)Gal(b1-3)GlcNAc,1.41
same,glycan array binding signal (z-score),[1],-0.142
same,glycan array binding signal (z-score),[2],2.35
same,glycan array binding signal (z-score),[3],-0.318
same,glycan array binding signal (z-score),[4],-0.445
same,glycan array binding signal (z-score),[5],1.32
same,glycan array binding signal (z-score),Gal(a1-3)Gal(b1-4)Glc,1.01
same,glycan array binding signal (z-score),Gal(a1-3)Gal(b1-4)GlcNAc,0.285
same,glycan array binding signal (z-score),[6],1.07
same,glycan array binding signal (z-score),[7],1.53
same,glycan array binding signal (z-score),[8],-0.324
same,glycan array binding signal (z-score),[9],0.032
same,glycan array binding signal (z-score),[10],0.409
same,glycan array binding signal (z-score),[11],0.204
same,glycan array binding signal (z-score),Gal(a1-3)GalNAc,-0.384
same,glycan array binding signal (z-score),[12],-1.64
same,glycan array binding signal (z-score),[13],-0.397
same,glycan array binding signal (z-score),Gal(a1-4)Gal(b1-4)Glc,-1.41
same,glycan array binding signal (z-score),Gal(a1-4)Gal(b1-4)GlcNAc,0.734
same,glycan array binding signal (z-score),[14],1.02
same,glycan array binding signal (z-score),[15],-0.369
same,glycan array binding signal (z-score),Gal(a1-4)GlcNAc,-0.665
same,glycan array binding signal (z-score),Gal(a1-6)Glc,-1.35
same,glycan array binding signal (z-score),Gal(b1-2)Gal,0.287
same,glycan array binding signal (z-score),Gal(b1-3)Gal,-1.59
same,glycan array binding signal (z-score),Gal(b1-3)Gal(b1-4)GlcNAc,-0.367
same,glycan array binding signal (z-score),Gal(b1-3)GalNAc,0.106
same,glycan array binding signal (z-score),[16],-0.33
same,glycan array binding signal (z-score),[17],0.9
same,glycan array binding signal (z-score),Gal(b1-3)GalNAc(b1-3)Gal,0.185
same,glycan array binding signal (z-score),[18],0.442
same,glycan array binding signal (z-score),[19],1.01
same,glycan array binding signal (z-score),[20],-1.42
same,glycan array binding signal (z-score),Gal(b1-3)GlcNAc,-0.582
same,glycan array binding signal (z-score),[21],1.65
same,glycan array binding signal (z-score),[22],0.873
same,glycan array binding signal (z-score),Gal(b1-3)GlcNAc(b1-2)Man,0.383
same,glycan array binding signal (z-score),[23],1.74

# Laid out differently: entries from further up.
binder	measurement	setting	value
B1	glycan array binding signal (z-score)	[3]	-0.318
same	glycan array binding signal (z-score)	[5]	1.32
same	glycan array binding signal (z-score)	Gal(a1-3)Gal(b1-4)GlcNAc	0.285
same	glycan array binding signal (z-score)	[8]	-0.324
same	glycan array binding signal (z-score)	Gal(a1-4)Gal(b1-4)Glc	-1.41
same	glycan array binding signal (z-score)	Gal(a1-4)GlcNAc	-0.665
same	glycan array binding signal (z-score)	Gal(b1-3)GlcNAc	-0.582
same	glycan array binding signal (z-score)	[22]	0.873
same	glycan array binding signal (z-score)	[23]	1.74
